In patent US20060121494A1:
Results are given in words; binding and its absence hold for the method and conditions named. In cells and extracts the contact can be indirect. Some results given as binding are weak or reduced against the parent protein; the word gives no strength.

Assays:
[1] = target: T1, hypophosphorylated Rb (retinoblastoma protein) (human) (UniProt P06400); experiment: co-immunoprecipitation with anti-Id2 from TIG-3 lysates, Western blot
T1 sequence (hypophosphorylated form, looked up): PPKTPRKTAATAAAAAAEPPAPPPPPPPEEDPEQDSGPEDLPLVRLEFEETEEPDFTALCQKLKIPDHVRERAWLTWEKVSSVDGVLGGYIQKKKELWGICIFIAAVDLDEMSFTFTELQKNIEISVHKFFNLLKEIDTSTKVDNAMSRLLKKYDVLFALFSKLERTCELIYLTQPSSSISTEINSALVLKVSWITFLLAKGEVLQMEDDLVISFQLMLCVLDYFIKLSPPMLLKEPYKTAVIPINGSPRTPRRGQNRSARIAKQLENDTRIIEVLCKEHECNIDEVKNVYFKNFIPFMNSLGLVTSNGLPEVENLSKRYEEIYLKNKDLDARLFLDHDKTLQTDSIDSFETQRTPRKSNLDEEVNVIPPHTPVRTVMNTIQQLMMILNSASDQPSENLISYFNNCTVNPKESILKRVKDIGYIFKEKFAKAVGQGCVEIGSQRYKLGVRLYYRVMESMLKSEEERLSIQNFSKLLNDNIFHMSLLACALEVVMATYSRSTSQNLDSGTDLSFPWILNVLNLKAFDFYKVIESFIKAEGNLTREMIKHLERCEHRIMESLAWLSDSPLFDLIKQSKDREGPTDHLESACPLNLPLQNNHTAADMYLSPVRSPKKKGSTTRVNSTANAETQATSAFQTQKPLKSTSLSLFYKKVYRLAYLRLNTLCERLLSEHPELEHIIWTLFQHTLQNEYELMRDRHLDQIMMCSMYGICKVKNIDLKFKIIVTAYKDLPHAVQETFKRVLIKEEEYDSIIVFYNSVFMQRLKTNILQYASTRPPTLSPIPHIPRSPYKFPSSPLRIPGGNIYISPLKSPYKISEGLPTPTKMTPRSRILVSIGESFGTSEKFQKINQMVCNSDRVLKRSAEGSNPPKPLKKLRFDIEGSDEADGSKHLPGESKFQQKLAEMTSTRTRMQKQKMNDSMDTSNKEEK

[2] = target: T1, hypophosphorylated Rb (retinoblastoma protein) (human); experiment: co-immunoprecipitation (discussion of Example 1)
[3] = target: T1, hypophosphorylated Rb (retinoblastoma protein) (human); experiment: co-immunoprecipitation with anti-Id2 from neuroblastoma cell lysates, Western blot for Rb

Measured: binding

B1: Id2 protein (endogenous, human cells) (protein)
chain: MKAFSPVRSVRKNSLSDHSLGISRSKTPVDDPMSLLYNMNDCYSKLKELVPSIPQNKKVSKMEILQHLIDYILDLQIALDSHPTIVSLHHQRPGQNQRSRTTPLTTLNTDISILSLQASEFPSELMSNDSKALCG
binds: all assays above
